# Data published in the supplement of paper PMC8728848.
# The list shows a part of the results.
# B1: EULS2 M3 (Oryza sativa) (protein)
# chain: MVYCRANPNYAMTARNGAVVLAPANPKDEYQHWIKDMRWSTSIKDEEGYPAFALVNKATGQAIKHSLGQSHPVRLVPYNPEVMDESVLWTESRDVGNGFRCIRMVNNIYLNFDAFHGDKYHGGVRDGTDIVLWKLCEGDSLRWKIQPYYILEQKLISEEDLNSAVDHHHHHH
# Experiments:
# Assay in all cases: glycan array binding signal (z-score within array); higher = stronger binding
# Details in all cases: glycan notation: IUPAC condensed, linker removed
# [1] = biological target: Gal(b1-3)GlcNAc(b1-2)Man(a1-3)[Gal(b1-3)GlcNAc(b1-2)Man(a1-6)]Man(b1-4)GlcNAc(b1-4)[Fuc(a1-6)]GlcNAc
# Procedure, shortened: (§1)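 Columns mapping to the same glycan were averaged after glycan names were converted to IUPAC-condensed notation. The data come from 3228 arrays in the Consortium for Functional Glycomics database, limited to those with an available protein sequence. Binding is reported as a within-array Z-score averaged across arrays of one protein sequence and across linkers.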
# [2] = biological target: Gal(b1-3)GlcNAc(b1-2)Man(a1-3)[GlcNAc(b1-4)][Gal(b1-3)GlcNAc(b1-2)Man(a1-6)]Man(b1-4)GlcNAc(b1-4)GlcNAc
# Procedure, shortened: as §1
# [3] = biological target: Gal(b1-3)GlcNAc(b1-2)[Gal(b1-3)GlcNAc(b1-6)]Man(a1-6)[Gal(b1-3)GlcNAc(b1-2)Man(a1-3)]Man(b1-4)GlcNAc(b1-4)GlcNAc
# Procedure, shortened: as §1
# [4] = biological target: Gal(b1-3)GlcNAc(b1-3)Gal(b1-3)GlcNAc
# Procedure, shortened: as §1
# [5] = biological target: Gal(b1-3)GlcNAc(b1-3)Gal(b1-4)Glc
# Procedure, shortened: as §1
# [6] = biological target: Gal(b1-3)GlcNAc(b1-3)Gal(b1-4)GlcNAc
# Procedure, shortened: as §1
# [7] = biological target: Gal(b1-3)GlcNAc(b1-3)Gal(b1-4)GlcNAc(b1-2)Man(a1-3)[Gal(b1-3)GlcNAc(b1-3)Gal(b1-4)GlcNAc(b1-2)Man(a1-6)]Man(b1-4)GlcNAc(b1-4)GlcNAc
# Procedure, shortened: as §1
# [8] = biological target: Gal(b1-3)GlcNAc(b1-3)Gal(b1-4)GlcNAc(b1-2)[Gal(b1-3)GlcNAc(b1-3)Gal(b1-4)GlcNAc(b1-6)]Man(a1-6)[Gal(b1-3)GlcNAc(b1-3)Gal(b1-4)GlcNAc(b1-2)Man(a1-3)]Man(b1-4)GlcNAc(b1-4)[Fuc(a1-6)]GlcNAc
# Procedure, shortened: as §1
# [9] = biological target: Gal(b1-3)GlcNAc(b1-3)Gal(b1-4)GlcNAc(b1-3)Gal(b1-4)GlcNAc(b1-2)[Gal(b1-3)GlcNAc(b1-3)Gal(b1-4)GlcNAc(b1-3)Gal(b1-4)GlcNAc(b1-6)]Man(a1-6)[Gal(b1-3)GlcNAc(b1-3)Gal(b1-4)GlcNAc(b1-3)Gal(b1-4)GlcNAc(b1-2)Man(a1-3)]Man(b1-4)GlcNAc(b1-4)[Fuc(a1-6)]GlcNAc
# Procedure, shortened: as §1
# [10] = biological target: Gal(b1-3)GlcNAc(b1-3)Gal(b1-4)GlcNAc(b1-6)[Gal(b1-3)GlcNAc(b1-3)]Gal(b1-4)Glc
# Procedure, shortened: as §1
# [11] = biological target: Gal(b1-3)GlcNAc(b1-3)Gal(b1-4)[Fuc(a1-3)]GlcNAc
# Procedure, shortened: as §1
# [12] = biological target: Gal(b1-3)GlcNAc(b1-3)Gal(b1-4)[Fuc(a1-3)]GlcNAc(b1-6)[Gal(b1-3)GlcNAc(b1-3)]Gal(b1-4)Glc
# Procedure, shortened: as §1
# [13] = biological target: Gal(b1-3)GlcNAc(b1-3)GalNAc
# Procedure, shortened: as §1
# [14] = biological target: Gal(b1-3)GlcNAc(b1-6)Gal(b1-4)GlcNAc
# Procedure, shortened: as §1
# [15] = biological target: Gal(b1-3)GlcNAc(b1-6)GalNAc
# Procedure, shortened: as §1
# [16] = biological target: Gal(b1-3)GlcNAc(b1-6)[Gal(b1-3)]GalNAc
# Procedure, shortened: as §1
# [17] = biological target: Gal(b1-3)GlcNAc6S
# Procedure, shortened: as §1
# [18] = biological target: Gal(b1-3)[Fuc(a1-4)]GlcNAc
# Procedure, shortened: as §1
# [19] = biological target: Gal(b1-3)[Fuc(a1-4)]GlcNAc(b1-2)Man
# Procedure, shortened: as §1
# [20] = biological target: Gal(b1-3)[Fuc(a1-4)]GlcNAc(b1-2)Man(a1-3)[Gal(b1-3)[Fuc(a1-4)]GlcNAc(b1-2)Man(a1-6)]Man(b1-4)GlcNAc(b1-4)[Fuc(a1-6)]GlcNAc
# Procedure, shortened: as §1
# [21] = biological target: Gal(b1-3)[Fuc(a1-4)]GlcNAc(b1-3)Gal(b1-3)[Fuc(a1-4)]GlcNAc
# Procedure, shortened: as §1
# [22] = biological target: Gal(b1-3)[Fuc(a1-4)]GlcNAc(b1-3)Gal(b1-4)[Fuc(a1-3)]GlcNAc
# Procedure, shortened: as §1
# [23] = biological target: Gal(b1-3)[Fuc(a1-4)]GlcNAc(b1-6)GalNAc
# Procedure, shortened: as §1
# [24] = biological target: Gal(b1-3)[GlcNAc(b1-6)]GalNAc
# Procedure, shortened: as §1
# [25] = biological target: Gal(b1-3)[Neu5Ac(a2-6)]GalNAc
# Procedure, shortened: as §1
# [26] = biological target: Gal(b1-3)[Neu5Ac(a2-6)]GlcNAc(b1-4)Gal(b1-4)Glc
# Procedure, shortened: as §1
# [27] = biological target: Gal(b1-3)[Neu5Ac(b2-6)]GalNAc
# Procedure, shortened: as §1
# [28] = biological target: Gal(b1-4)Gal
# Procedure, shortened: as §1
# [29] = biological target: Gal(b1-4)GalNAc(a1-3)[Fuc(a1-2)]Gal(b1-4)GlcNAc
# Procedure, shortened: as §1
# [30] = biological target: Gal(b1-4)GalNAc(b1-3)[Fuc(a1-2)]Gal(b1-4)GlcNAc
# Procedure, shortened: as §1
# [31] = biological target: Gal(b1-4)Glc
# Procedure, shortened: as §1
# [32] = biological target: Gal(b1-4)Glc6S
# Procedure, shortened: as §1
# [33] = biological target: Gal(b1-4)GlcNAc
# Procedure, shortened: as §1
# [34] = biological target: Gal(b1-4)GlcNAc(a1-6)Gal(b1-4)GlcNAc
# Procedure, shortened: as §1
# [35] = biological target: Gal(b1-4)GlcNAc(b1-2)Man
# Procedure, shortened: as §1
# [36] = biological target: Gal(b1-4)GlcNAc(b1-2)Man(a1-3)Man(b1-4)GlcNAc(b1-4)GlcNAc
# Procedure, shortened: as §1
# [37] = biological target: Gal(b1-4)GlcNAc(b1-2)Man(a1-3)[Gal(b1-4)GlcNAc(b1-2)Man(a1-6)]Man(b1-4)GlcNAc(b1-4)GlcNAc
# Procedure, shortened: as §1
# [38] = biological target: Gal(b1-4)GlcNAc(b1-2)Man(a1-3)[Gal(b1-4)GlcNAc(b1-2)Man(a1-6)]Man(b1-4)GlcNAc(b1-4)[Fuc(a1-6)]GlcNAc
# Procedure, shortened: as §1
# [39] = biological target: Gal(b1-4)GlcNAc(b1-2)Man(a1-3)[Gal(b1-4)GlcNAc(b1-2)Man(a1-6)][Gal(b1-4)GlcNAc(b1-4)]Man(b1-4)GlcNAc(b1-4)[Fuc(a1-6)]GlcNAc
# Procedure, shortened: as §1
# [40] = biological target: Gal(b1-4)GlcNAc(b1-2)Man(a1-3)[Gal(b1-4)GlcNAc(b1-2)Man(a1-6)][GlcNAc(b1-4)]Man(b1-4)GlcNAc(b1-4)[Fuc(a1-6)]GlcNAc
# Procedure, shortened: as §1
# [41] = biological target: Gal(b1-4)GlcNAc(b1-2)Man(a1-3)[GlcNAc(b1-2)Man(a1-6)]Man(b1-4)GlcNAc(b1-4)GlcNAc
# Procedure, shortened: as §1
# [42] = biological target: Gal(b1-4)GlcNAc(b1-2)Man(a1-3)[GlcNAc(b1-4)][Gal(b1-4)GlcNAc(b1-2)Man(a1-6)]Man(b1-4)GlcNAc(b1-4)GlcNAc
# Procedure, shortened: as §1
# [43] = biological target: Gal(b1-4)GlcNAc(b1-2)Man(a1-3)[Man(a1-6)]Man(b1-4)GlcNAc(b1-4)GlcNAc
# Procedure, shortened: as §1
# [44] = biological target: Gal(b1-4)GlcNAc(b1-2)Man(a1-6)Man(b1-4)GlcNAc(b1-4)GlcNAc
# Procedure, shortened: as §1
# [45] = biological target: Gal(b1-4)GlcNAc(b1-2)Man(a1-6)[GlcNAc(b1-2)Man(a1-3)]Man(b1-4)GlcNAc(b1-4)GlcNAc
# Procedure, shortened: as §1
binder,measurement,setting,value
B1,glycan array binding signal (z-score),[1],-0.658
same,glycan array binding signal (z-score),[2],0.099
same,glycan array binding signal (z-score),[3],-0.346
same,glycan array binding signal (z-score),[4],-0.4
same,glycan array binding signal (z-score),[5],-0.014
same,glycan array binding signal (z-score),[6],-0.093
same,glycan array binding signal (z-score),[7],0.43
same,glycan array binding signal (z-score),[8],1.28
same,glycan array binding signal (z-score),[9],1.66
same,glycan array binding signal (z-score),[10],-0.565
same,glycan array binding signal (z-score),[11],-0.065
same,glycan array binding signal (z-score),[12],-0.476
same,glycan array binding signal (z-score),[13],0.298
same,glycan array binding signal (z-score),[14],-0.328
same,glycan array binding signal (z-score),[15],-0.373
same,glycan array binding signal (z-score),[16],-0.411
same,glycan array binding signal (z-score),[17],0.193
same,glycan array binding signal (z-score),[18],0.71
same,glycan array binding signal (z-score),[19],1.17
same,glycan array binding signal (z-score),[20],-0.151
same,glycan array binding signal (z-score),[21],2.13
same,glycan array binding signal (z-score),[22],-0.726
same,glycan array binding signal (z-score),[23],-0.902
same,glycan array binding signal (z-score),[24],-0.139
same,glycan array binding signal (z-score),[25],-0.038
same,glycan array binding signal (z-score),[26],-0.281
same,glycan array binding signal (z-score),[27],-0.138
same,glycan array binding signal (z-score),[28],0.123
same,glycan array binding signal (z-score),[29],-0.34
same,glycan array binding signal (z-score),[30],-0.158
same,glycan array binding signal (z-score),[31],0.194
same,glycan array binding signal (z-score),[32],-0.2
same,glycan array binding signal (z-score),[33],-0.275
same,glycan array binding signal (z-score),[34],-1.03
same,glycan array binding signal (z-score),[35],-0.082
same,glycan array binding signal (z-score),[36],0.165
same,glycan array binding signal (z-score),[37],-0.433
same,glycan array binding signal (z-score),[38],0.02
same,glycan array binding signal (z-score),[39],-0.303
same,glycan array binding signal (z-score),[40],-0.045
same,glycan array binding signal (z-score),[41],-0.718
same,glycan array binding signal (z-score),[42],0.316
same,glycan array binding signal (z-score),[43],0.111
same,glycan array binding signal (z-score),[44],-0.412
same,glycan array binding signal (z-score),[45],-0.251

# Another view of part of the listing above.
binder	measurement	setting	value
B1	glycan array binding signal (z-score)	[37]	-0.433
same	glycan array binding signal (z-score)	[38]	0.02
